# Data published in the supplement of paper PMC7666118.
# By UniProt entry, the sequences of proteins in these tests, tags left out. Where a name states a change or a piece, a line headed by the entry shows the natural chain unless it says otherwise.
# UniProt Q9C0E8: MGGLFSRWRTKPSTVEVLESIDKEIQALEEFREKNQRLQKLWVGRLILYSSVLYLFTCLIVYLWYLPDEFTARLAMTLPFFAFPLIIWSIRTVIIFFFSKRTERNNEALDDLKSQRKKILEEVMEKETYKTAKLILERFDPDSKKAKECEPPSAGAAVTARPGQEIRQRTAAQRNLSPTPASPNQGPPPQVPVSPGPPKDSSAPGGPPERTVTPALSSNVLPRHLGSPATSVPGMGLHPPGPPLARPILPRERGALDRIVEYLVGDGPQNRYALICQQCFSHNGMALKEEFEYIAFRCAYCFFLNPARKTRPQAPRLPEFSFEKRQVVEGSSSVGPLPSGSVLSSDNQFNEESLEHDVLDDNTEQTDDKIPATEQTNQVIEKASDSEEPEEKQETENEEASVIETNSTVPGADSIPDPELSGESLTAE
# UniProt Q9H9A6: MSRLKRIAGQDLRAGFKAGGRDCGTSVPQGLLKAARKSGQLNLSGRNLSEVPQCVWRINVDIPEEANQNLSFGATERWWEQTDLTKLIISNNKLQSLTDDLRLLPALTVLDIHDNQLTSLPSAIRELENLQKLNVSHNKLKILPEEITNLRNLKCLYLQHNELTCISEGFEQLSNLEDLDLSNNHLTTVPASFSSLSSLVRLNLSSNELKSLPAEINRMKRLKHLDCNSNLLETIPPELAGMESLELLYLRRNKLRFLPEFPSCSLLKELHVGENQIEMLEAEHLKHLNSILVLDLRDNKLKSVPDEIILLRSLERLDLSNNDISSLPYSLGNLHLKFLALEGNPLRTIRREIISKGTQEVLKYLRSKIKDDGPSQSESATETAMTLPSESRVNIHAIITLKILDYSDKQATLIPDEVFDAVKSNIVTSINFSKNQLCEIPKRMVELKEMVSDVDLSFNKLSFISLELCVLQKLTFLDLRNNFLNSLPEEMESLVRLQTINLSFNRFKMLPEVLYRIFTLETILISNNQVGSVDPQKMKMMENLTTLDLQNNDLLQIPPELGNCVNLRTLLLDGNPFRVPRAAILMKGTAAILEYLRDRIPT
# UniProt Q8NF37: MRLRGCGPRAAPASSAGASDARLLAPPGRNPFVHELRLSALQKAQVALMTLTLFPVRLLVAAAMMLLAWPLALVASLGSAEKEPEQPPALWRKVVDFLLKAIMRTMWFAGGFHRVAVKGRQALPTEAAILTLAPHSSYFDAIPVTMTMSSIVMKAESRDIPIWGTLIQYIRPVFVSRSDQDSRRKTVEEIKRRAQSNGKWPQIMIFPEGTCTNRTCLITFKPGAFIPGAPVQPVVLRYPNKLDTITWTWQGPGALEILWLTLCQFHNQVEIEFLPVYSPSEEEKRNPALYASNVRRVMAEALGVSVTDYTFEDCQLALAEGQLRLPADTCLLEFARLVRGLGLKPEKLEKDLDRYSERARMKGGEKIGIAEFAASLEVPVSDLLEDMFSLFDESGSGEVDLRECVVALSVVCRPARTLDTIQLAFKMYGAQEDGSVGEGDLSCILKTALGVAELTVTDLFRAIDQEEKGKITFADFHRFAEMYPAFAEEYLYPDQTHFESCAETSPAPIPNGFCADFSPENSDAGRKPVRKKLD
# UniProt O75427: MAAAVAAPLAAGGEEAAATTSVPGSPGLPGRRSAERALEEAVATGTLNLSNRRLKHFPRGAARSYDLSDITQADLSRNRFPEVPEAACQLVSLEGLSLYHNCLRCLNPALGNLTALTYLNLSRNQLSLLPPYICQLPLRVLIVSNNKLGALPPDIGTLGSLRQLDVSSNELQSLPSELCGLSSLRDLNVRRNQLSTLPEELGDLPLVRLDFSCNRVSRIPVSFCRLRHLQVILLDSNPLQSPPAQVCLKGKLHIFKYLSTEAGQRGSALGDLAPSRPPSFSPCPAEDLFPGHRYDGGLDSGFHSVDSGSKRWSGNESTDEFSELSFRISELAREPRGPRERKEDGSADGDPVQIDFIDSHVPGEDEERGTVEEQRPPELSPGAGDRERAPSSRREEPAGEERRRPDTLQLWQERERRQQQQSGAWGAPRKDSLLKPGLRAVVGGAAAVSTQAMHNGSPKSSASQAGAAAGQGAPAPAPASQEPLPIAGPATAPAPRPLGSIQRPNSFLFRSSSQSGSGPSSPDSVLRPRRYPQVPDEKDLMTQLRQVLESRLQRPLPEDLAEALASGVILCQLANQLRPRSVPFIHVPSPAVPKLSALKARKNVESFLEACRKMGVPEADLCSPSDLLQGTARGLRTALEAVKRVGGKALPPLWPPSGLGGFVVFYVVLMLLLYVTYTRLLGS
# UniProt Q68DH5: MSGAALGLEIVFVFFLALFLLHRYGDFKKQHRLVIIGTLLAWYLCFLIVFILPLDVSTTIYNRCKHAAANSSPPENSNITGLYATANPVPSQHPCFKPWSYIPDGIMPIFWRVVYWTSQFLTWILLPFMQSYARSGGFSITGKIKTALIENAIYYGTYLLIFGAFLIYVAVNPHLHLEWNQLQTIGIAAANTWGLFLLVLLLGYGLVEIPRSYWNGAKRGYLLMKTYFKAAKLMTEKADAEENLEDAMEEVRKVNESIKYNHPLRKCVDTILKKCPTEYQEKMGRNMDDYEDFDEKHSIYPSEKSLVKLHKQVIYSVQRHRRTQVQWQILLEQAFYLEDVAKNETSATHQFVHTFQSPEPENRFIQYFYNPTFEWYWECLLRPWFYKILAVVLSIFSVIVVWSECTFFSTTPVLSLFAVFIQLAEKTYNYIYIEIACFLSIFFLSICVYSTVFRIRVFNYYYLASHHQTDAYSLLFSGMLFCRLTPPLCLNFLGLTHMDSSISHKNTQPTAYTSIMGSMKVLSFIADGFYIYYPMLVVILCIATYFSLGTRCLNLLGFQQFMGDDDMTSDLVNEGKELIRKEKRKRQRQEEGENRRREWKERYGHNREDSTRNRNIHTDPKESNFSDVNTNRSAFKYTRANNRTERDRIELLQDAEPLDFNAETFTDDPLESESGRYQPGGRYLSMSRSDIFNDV
# UniProt Q538Z0: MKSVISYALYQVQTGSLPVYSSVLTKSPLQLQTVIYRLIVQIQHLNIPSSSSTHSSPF
# UniProt Q68CR1: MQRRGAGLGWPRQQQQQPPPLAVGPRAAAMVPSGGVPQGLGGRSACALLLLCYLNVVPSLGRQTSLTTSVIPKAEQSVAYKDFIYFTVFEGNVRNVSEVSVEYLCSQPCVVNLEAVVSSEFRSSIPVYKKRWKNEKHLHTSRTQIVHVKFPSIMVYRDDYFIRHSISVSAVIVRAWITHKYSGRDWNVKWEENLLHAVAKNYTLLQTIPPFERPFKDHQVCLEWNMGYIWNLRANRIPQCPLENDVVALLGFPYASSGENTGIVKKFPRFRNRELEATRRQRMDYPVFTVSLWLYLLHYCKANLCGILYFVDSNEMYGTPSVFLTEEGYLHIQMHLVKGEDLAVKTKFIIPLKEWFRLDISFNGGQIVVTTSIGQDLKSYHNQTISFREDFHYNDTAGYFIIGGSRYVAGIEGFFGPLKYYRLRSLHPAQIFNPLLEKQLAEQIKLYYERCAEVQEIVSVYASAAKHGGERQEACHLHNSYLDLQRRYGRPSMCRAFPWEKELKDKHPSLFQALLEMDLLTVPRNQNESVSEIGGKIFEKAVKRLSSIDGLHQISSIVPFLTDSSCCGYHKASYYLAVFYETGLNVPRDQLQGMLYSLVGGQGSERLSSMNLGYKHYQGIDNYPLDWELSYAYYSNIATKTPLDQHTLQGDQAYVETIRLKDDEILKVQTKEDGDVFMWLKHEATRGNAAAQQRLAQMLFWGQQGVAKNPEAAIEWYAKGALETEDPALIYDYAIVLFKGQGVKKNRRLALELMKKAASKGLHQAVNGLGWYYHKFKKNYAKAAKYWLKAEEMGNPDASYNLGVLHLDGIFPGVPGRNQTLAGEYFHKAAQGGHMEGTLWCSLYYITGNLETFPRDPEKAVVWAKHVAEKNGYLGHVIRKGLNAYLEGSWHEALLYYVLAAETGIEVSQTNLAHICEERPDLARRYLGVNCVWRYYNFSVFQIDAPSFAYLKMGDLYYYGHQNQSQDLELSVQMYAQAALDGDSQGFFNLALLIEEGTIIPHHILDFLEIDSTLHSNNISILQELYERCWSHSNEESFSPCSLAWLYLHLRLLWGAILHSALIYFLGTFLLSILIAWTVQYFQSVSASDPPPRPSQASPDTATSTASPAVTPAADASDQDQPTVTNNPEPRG
# UniProt O95202: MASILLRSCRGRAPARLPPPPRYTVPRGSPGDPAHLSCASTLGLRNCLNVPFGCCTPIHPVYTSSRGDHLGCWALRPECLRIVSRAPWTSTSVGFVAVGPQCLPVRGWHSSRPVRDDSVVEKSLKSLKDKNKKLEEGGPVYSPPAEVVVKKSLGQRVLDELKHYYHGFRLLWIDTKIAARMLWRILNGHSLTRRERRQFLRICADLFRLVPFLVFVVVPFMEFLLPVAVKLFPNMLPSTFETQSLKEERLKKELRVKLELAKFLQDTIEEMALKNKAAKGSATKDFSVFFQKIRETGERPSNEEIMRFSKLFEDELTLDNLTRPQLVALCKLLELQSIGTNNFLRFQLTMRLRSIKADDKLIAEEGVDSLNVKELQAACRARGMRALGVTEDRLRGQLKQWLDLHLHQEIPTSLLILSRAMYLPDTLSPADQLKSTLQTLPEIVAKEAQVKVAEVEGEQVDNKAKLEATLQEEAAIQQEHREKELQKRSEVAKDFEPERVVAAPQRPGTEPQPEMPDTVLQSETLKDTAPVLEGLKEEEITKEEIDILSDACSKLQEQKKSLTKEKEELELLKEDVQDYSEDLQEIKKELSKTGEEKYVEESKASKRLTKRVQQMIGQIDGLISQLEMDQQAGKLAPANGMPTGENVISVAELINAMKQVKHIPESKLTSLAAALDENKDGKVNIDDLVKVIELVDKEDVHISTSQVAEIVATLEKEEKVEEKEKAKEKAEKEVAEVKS
# UniProt A2VDJ0: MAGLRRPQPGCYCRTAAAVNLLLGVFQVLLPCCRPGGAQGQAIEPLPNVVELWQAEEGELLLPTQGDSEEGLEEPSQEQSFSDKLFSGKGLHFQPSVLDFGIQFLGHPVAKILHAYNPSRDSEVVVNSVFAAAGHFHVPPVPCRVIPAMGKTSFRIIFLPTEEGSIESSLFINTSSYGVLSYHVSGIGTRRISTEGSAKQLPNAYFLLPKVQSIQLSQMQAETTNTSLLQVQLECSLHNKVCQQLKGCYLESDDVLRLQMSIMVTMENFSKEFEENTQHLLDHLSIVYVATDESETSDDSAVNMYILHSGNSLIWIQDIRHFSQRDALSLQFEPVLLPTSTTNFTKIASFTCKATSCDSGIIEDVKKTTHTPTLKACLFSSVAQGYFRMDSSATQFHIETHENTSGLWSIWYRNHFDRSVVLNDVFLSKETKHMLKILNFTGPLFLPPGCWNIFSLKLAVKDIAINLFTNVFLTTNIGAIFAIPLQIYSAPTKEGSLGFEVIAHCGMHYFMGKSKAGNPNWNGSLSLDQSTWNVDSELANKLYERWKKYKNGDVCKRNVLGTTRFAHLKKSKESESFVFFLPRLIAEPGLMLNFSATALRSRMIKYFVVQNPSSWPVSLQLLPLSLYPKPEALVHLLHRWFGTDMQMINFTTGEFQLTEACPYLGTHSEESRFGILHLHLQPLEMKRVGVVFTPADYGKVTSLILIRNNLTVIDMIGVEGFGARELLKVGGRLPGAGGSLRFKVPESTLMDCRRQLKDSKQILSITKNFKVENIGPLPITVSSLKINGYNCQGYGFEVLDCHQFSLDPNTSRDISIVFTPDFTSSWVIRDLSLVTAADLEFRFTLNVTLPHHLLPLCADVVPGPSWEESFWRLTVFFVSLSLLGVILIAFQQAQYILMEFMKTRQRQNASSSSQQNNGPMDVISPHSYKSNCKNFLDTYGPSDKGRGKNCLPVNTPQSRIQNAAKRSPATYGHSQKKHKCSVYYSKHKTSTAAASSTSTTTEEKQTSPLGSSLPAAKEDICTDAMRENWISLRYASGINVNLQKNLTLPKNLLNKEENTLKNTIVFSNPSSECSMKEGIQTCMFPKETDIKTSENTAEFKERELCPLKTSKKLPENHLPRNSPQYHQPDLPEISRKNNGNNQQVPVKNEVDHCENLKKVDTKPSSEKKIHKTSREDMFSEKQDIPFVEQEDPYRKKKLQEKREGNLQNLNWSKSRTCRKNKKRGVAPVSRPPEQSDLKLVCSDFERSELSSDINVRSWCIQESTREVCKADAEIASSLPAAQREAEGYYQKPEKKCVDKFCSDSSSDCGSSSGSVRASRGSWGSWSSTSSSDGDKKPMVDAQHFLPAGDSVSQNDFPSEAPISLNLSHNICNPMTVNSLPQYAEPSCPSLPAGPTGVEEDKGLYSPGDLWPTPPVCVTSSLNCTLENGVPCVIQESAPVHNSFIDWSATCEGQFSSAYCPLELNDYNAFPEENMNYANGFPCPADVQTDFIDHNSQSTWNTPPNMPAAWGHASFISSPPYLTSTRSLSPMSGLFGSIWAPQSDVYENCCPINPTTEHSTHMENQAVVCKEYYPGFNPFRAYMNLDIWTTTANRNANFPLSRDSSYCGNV
# Some of the results follow.
# Compound: COc1ccc(Cn2ccc3ccc(C(=O)NO)cc32)cc1
# Experiment: dose-dependent thermal stabilisation call (2D-TPP, DLPTP, 10% FDR) (binary (1 = stabilised)); higher = stabilised by the compound
# Conditions: system: HL-60 intact cells; concentration range 0.04-10 µM
row,Target,dose-dependent thermal stabilisation call
1,KIAA1715 (UniProt Q9C0E8),inactive: 0
2,LRRC40 (UniProt Q9H9A6),inactive: 0
3,LDHB (UniProt P07195),inactive: 0
4,KLHL7 (UniProt Q8IXQ5),inactive: 0
5,LARP4 (UniProt Q71RC2),inactive: 0
6,LOC100130633,inactive: 0
7,KRAS (UniProt P01116),inactive: 0
8,LPCAT1 (UniProt Q8NF37),inactive: 0
9,LOC729148,inactive: 0
10,KIAA1109 (UniProt Q2LD37),inactive: 0
11,MAGEB2 (UniProt O15479),inactive: 0
12,LCLAT1 (UniProt Q6UWP7),inactive: 0
13,LIMK2 (UniProt P53671),inactive: 0
14,LIG3 (UniProt P49916),inactive: 0
15,LRRC8D (UniProt Q7L1W4),inactive: 0
16,KIAA0664 (UniProt O75153),inactive: 0
17,LRCH4 (UniProt O75427),inactive: 0
18,LMBRD2 (UniProt Q68DH5),inactive: 0
19,LUZP6 (UniProt Q538Z0),inactive: 0
20,LZTR1 (UniProt Q8N653),inactive: 0
21,LPGAT1 (UniProt Q92604),inactive: 0
22,MAK16 (UniProt Q9BXY0),inactive: 0
23,KIAA0746 (UniProt Q68CR1),inactive: 0
24,LETM1 (UniProt O95202),inactive: 0
25,MAGED2 (UniProt Q9UNF1),inactive: 0
26,KIN (UniProt O60870),inactive: 0
27,KIAA0922 (UniProt A2VDJ0),inactive: 0

# Exported tab-delimited: part of the list above
row	Target	dose-dependent thermal stabilisation call
17	LRCH4 (UniProt O75427)	inactive: 0
18	LMBRD2 (UniProt Q68DH5)	inactive: 0
19	LUZP6 (UniProt Q538Z0)	inactive: 0
20	LZTR1 (UniProt Q8N653)	inactive: 0
21	LPGAT1 (UniProt Q92604)	inactive: 0
